PubChem BioAssay AID1259291 | Sanger Institute – 2017
This is an unselected part of 794 deposited reagents. 15 of all reagents (1.9%) count as active. 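Calls rest on knock-down alone; drug synergy scores do not affect them; drugs added a day post-transfection, DMSO vehicle as comparison.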 No viability above 1 is reported: the scale is capped. Not all columns of the deposit are shown. The record does not give: the amount of reagent, the time to read-out.

Test: 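Genes needed for HT29 colorectal cancer cell survival or for sensitivity to drugs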 (primary screen)
Cells: HT29 human colorectal cancer cells
Knock-down reagent: siRNA pool against human genes
Treatment: anchor drugs added a day after transfection: BYL719 at 1 µM, cetuximab at 5 µg/ml or trametinib at 10 nM, or DMSO vehicle alone
Measurement: 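Cell viability as a fraction of the non-targeting pool, mean of replicates, robust z-scores from control wells; synergy scores for BYL719 (1 µM), cetuximab (5 µg/ml), trametinib (10 nM)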
Direction: robust z-score, knock-down alone and viability, knock-down alone: higher = more viable cells
Rule for the call: 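a knock-down alone scoring under -3 on robust z-score is called essential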
Calls: active = essential (knock-down alone); inactive = no change alone

FLT1 (fms related receptor tyrosine kinase 1)
- robust z-score, knock-down alone: -1.07
- viability, knock-down alone (fraction of control): 0.9
- Call: inactive

DYRK1B
- robust z-score, knock-down alone: 0.552
- viability, knock-down alone (fraction of control): 1
- Call: inactive

PDIK1L (PDLIM1 interacting kinase 1 like)
- robust z-score, knock-down alone: -0.295
- viability, knock-down alone (fraction of control): 0.947
- Call: inactive

AK7 (adenylate kinase 7)
- robust z-score, knock-down alone: 0.552
- viability, knock-down alone (fraction of control): 1
- Call: inactive

COASY (Coenzyme A synthase)
- robust z-score, knock-down alone: -2.01
- viability, knock-down alone (fraction of control): 0.841
- Call: inactive

CAD
- robust z-score, knock-down alone: 0.552
- viability, knock-down alone (fraction of control): 1
- Call: inactive

CDK8 (cyclin dependent kinase 8)
- robust z-score, knock-down alone: 0.542
- viability, knock-down alone (fraction of control): 0.999
- Call: inactive

SYK (spleen associated tyrosine kinase)
- robust z-score, knock-down alone: 0.447
- viability, knock-down alone (fraction of control): 0.993
- Call: inactive

PI4K2A (phosphatidylinositol 4-kinase type 2 alpha)
- robust z-score, knock-down alone: -0.472
- viability, knock-down alone (fraction of control): 0.936
- Call: inactive

NEK5 (NIMA related kinase 5)
- robust z-score, knock-down alone: 0.552
- viability, knock-down alone (fraction of control): 1
- Call: inactive

FN1 (fibronectin 1)
- robust z-score, knock-down alone: 0.552
- viability, knock-down alone (fraction of control): 1
- Call: inactive

PINK1 (PTEN induced kinase 1)
- robust z-score, knock-down alone: -0.647
- viability, knock-down alone (fraction of control): 0.926
- Call: inactive

DBF4 (DBF4-CDC7 kinase regulatory subunit)
- robust z-score, knock-down alone: 0.552
- viability, knock-down alone (fraction of control): 1
- Call: inactive

KCNH8 (potassium voltage-gated channel subfamily H member 8)
- robust z-score, knock-down alone: 0.0587
- viability, knock-down alone (fraction of control): 0.969
- Call: inactive

SIK2 (salt inducible kinase 2)
- robust z-score, knock-down alone: 0.552
- viability, knock-down alone (fraction of control): 1
- Call: inactive

MAP3K5 (mitogen-activated protein kinase kinase kinase 5)
- robust z-score, knock-down alone: 0.552
- viability, knock-down alone (fraction of control): 1
- Call: inactive

PRPS2 (phosphoribosyl pyrophosphate synthetase 2)
- robust z-score, knock-down alone: 0.185
- viability, knock-down alone (fraction of control): 0.977
- Call: inactive

MAGI2
- robust z-score, knock-down alone: 0.552
- viability, knock-down alone (fraction of control): 1
- Call: inactive

AMER1 (APC membrane recruitment protein 1)
- robust z-score, knock-down alone: 0.552
- viability, knock-down alone (fraction of control): 1
- Call: inactive

PGK2 (phosphoglycerate kinase 2)
- robust z-score, knock-down alone: 0.552
- viability, knock-down alone (fraction of control): 1
- Call: inactive

ACO1 (aconitase 1)
- robust z-score, knock-down alone: -0.0889
- viability, knock-down alone (fraction of control): 0.96
- Call: inactive

CKS1B (CDC28 protein kinase regulatory subunit 1B)
- robust z-score, knock-down alone: 0.552
- viability, knock-down alone (fraction of control): 1
- Call: inactive

VRK3 (VRK serine/threonine kinase 3)
- robust z-score, knock-down alone: -0.0244
- viability, knock-down alone (fraction of control): 0.964
- Call: inactive

SRC (SRC proto-oncogene, non-receptor tyrosine kinase)
- robust z-score, knock-down alone: -0.562
- viability, knock-down alone (fraction of control): 0.931
- Call: inactive

MATK (megakaryocyte-associated tyrosine kinase)
- robust z-score, knock-down alone: 0.552
- viability, knock-down alone (fraction of control): 1
- Call: inactive

RPS6KA2 (ribosomal protein S6 kinase A2)
- robust z-score, knock-down alone: 0.552
- viability, knock-down alone (fraction of control): 1
- Call: inactive

HK1 (hexokinase 1)
- robust z-score, knock-down alone: 0.444
- viability, knock-down alone (fraction of control): 0.993
- Call: inactive

TSSK4 (testis specific serine kinase 4)
- robust z-score, knock-down alone: 0.552
- viability, knock-down alone (fraction of control): 1
- Call: inactive

TNIK (TRAF2 and NCK interacting kinase)
- robust z-score, knock-down alone: 0.357
- viability, knock-down alone (fraction of control): 0.988
- Call: inactive

NF1 (neurofibromin 1)
- robust z-score, knock-down alone: 0.271
- viability, knock-down alone (fraction of control): 0.983
- Call: inactive

TRIM27 (tripartite motif containing 27)
- robust z-score, knock-down alone: 0.0667
- viability, knock-down alone (fraction of control): 0.97
- Call: inactive

PCK2 (phosphoenolpyruvate carboxykinase 2, mitochondrial)
- robust z-score, knock-down alone: 0.197
- viability, knock-down alone (fraction of control): 0.978
- Call: inactive

EGFR (epidermal growth factor receptor)
- robust z-score, knock-down alone: -0.171
- viability, knock-down alone (fraction of control): 0.955
- Call: inactive

CRIM1 (cysteine rich transmembrane BMP regulator 1)
- robust z-score, knock-down alone: 0.552
- viability, knock-down alone (fraction of control): 1
- Call: inactive

PTEN (phosphatase and tensin homolog)
- robust z-score, knock-down alone: -1.76
- viability, knock-down alone (fraction of control): 0.856
- Call: inactive

MAP3K14 (mitogen-activated protein kinase kinase kinase 14)
- robust z-score, knock-down alone: 0.552
- viability, knock-down alone (fraction of control): 1
- Call: inactive
